From publication PMC7907286

Experiments:
[1] = biological target: T1, chicken ovalbumin upstream promoter-factor II (mouse (endogenous in primary myoblasts and C2C12)) (UniProt P43135); test: proximity ligation; Duolink In Situ kit on fixed, permeabilised WT primary myoblasts; primary antibodies for COUP-TFII and THRA overnight at 4 °C; interactions appear as red dots
T1 sequence: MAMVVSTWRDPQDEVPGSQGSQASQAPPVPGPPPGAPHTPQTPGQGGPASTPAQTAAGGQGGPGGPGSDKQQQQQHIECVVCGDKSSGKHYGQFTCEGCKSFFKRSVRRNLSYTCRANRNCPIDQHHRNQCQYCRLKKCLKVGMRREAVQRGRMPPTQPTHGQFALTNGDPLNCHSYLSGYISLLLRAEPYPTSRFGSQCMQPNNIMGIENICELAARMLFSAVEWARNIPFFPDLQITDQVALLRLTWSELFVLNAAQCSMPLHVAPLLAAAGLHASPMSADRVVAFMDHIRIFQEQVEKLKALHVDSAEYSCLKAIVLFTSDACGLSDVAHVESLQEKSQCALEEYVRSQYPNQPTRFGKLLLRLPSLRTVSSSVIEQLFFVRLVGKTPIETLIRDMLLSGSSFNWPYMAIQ

[2] = biological target: T1, chicken ovalbumin upstream promoter-factor II (mouse (endogenous in primary myoblasts and C2C12)); test: co-IP; nuclear proteins of C2C12 myoblasts (CTRL, and after COUP-TFII silencing by siRNA); COUP-TFII antibody, Protein A/G PLUS-Agarose, three washes with PBS; COUP-TFII as bait, THRA detected by western blot
[3] = biological target: T1, chicken ovalbumin upstream promoter-factor II (mouse (endogenous in primary myoblasts and C2C12)); test: co-IP; nuclear proteins of proliferating primary myoblasts (legend: skeletal muscle) from WT and THRA-PV mice; COUP-TFII antibody 2 h at 4 °C, Protein A/G PLUS-Agarose overnight at 4 °C, three washes with PBS; COUP-TFII as bait, THRA detected by western blot

Measured: binding

thyroid nuclear receptor alpha (from UniProt P63058-2)
binds: all assays above

These are yes or no findings as the source states them, for the method shown. In cells and extracts the contact can be indirect. A result given as binding can be weak or reduced; the word gives no strength.
